Assay results published in the supplement of paper PMC3334620.
Whole data set: some 33,000 sequences, median “E-score (-0.5 to 0.5)” near -0.0059, cut for the highest 2% near 0.26. The list shows a part of the results.

target: T1, Cin5 (UniProt P40917); test: PBM E-score (8-mer binding enrichment) (E-score (-0.5 to 0.5)); higher = stronger / more preferred TF binding; settings: protein concentration: 100 nM; construct: GST-full length
T1 sequence: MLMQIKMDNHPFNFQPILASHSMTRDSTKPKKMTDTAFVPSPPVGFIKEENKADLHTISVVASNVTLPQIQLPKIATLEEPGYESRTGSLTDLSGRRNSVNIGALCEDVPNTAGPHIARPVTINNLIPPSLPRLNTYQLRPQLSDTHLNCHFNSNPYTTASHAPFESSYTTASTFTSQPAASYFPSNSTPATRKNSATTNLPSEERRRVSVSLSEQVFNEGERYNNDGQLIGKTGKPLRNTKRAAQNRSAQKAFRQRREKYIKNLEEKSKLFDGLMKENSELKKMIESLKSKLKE
Outline: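 Full-length yeast transcription factors or their DNA-binding domains, GST-tagged and expressed with PURExpress, were applied at about 100-200 nM to universal all-10-mer Agilent arrays. These arrays had been made double-stranded by primer extension on fresh or once-stripped slides. Detection used fluorescent anti-GST, normalisation used masliner, and E-scores for ungapped eight-base words pooled with reverse complements came from the Universal PBM Analysis Suite.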

| Sequence | PBM E-score |
| --- | --- |
| ACATTATA | 0.244 |
| ATTACAAG | 0.131 |
| CACGGGGA | -0.064 |
| GTGGCCTA | -0.0108 |
| CCCTTTCA | -0.259 |
| CTAATCAA | 0.301 |
| CGTCTAAC | -0.136 |
| AGGACGCC | -0.22 |
| ATTAAGGC | 0.0047 |
| CACTTTAC | 0.112 |
| CAGCGAAA | -0.0554 |
| GGTTACGA | 0.0792 |
| ATGGGGTG | 0.0486 |
| AGGTCGAA | 0.0466 |
| GGGTGGCA | -0.133 |
| GGTCCCAC | -0.148 |
| AGACGCGC | -0.0231 |
| CCAGGCGG | -0.0751 |
| CGACCCGA | -0.189 |
| AAGAATGT | 0.119 |
| AGGCGGTA | -0.182 |
| CGAGCTCA | -0.00639 |
| CAGGTAAG | 0.0626 |
| GTAAGCGA | 0.383 |
| CCATAAAC | -0.114 |

| Sequence | PBM E-score |
| --- | --- |
| TCCGAGAA | 0.13 |
| GAATGACA | 0.00808 |
| AATAGCGT | 0.1 |
| CATACACG | 0.0152 |
| CTGCAGGA | 0.068 |
| CCGCAGAG | -0.244 |
| AACACGAG | 0.105 |
| ACTGATAT | 0.128 |
| AGCTAACC | -0.0234 |
| AAGCATGG | -0.0876 |
| ACACAAAT | 0.144 |
| ATGATGCA | 0.136 |
| ATTGCATA | 0.237 |
| CGATAACA | 0.0831 |
| CAACACTG | 0.0247 |
| CGCTACCC | -0.181 |
| AAACTGCC | 0.0146 |
| AGTACAAA | 0.191 |
| CGGCGATA | 0.0501 |
| CGTTCAGA | -0.229 |
| ACATGTAG | 0.278 |
| GCCTGGAA | 0.0515 |
| ATATAGCA | 0.0799 |
| GCTACACC | -0.218 |
| ACACGCGG | -0.0884 |

| Sequence | PBM E-score |
| --- | --- |
| CAAACCAA | 0.161 |
| AAGTATCA | 0.08 |
| ATCGTTGG | -0.0306 |
| AAGATTAC | 0.255 |
| GCGATAGA | 0.0484 |
| ACCTGAGG | -0.154 |
| GATCGGAC | 0.0225 |
| AGGTGGTC | -0.0846 |
| ATATGCAC | 0.146 |
| GTTACCCA | -0.206 |
| GGATTGAC | 0.049 |
| CCGCGAAA | 0.0021 |
| ACTTAATA | 0.26 |
| AGCCGTGC | -0.304 |
| CAAAGCTA | -0.0452 |
| ACGCCAAA | -0.175 |
| CACTATGC | 0.048 |
| AGAATCGC | -0.0275 |
| GTCGTACA | 0.0969 |
| CCACACGG | -0.0184 |
| ATGCGGAA | 0.0572 |
| AACACTAC | 0.127 |
| CGGCACAG | -0.063 |
| GAGATTTA | -0.0654 |
| GCATTTCC | 0.0946 |

| Sequence | PBM E-score |
| --- | --- |
| GTCCAGGA | -0.144 |
| TTCACCAA | -0.00088 |
| AGTATCAC | 0.0484 |
| GATCTTCC | -0.173 |
| AATCACGG | 0.238 |
| GACGATAA | 0.108 |
| CTTAATGA | 0.0487 |
| CCGACTAG | -0.101 |
| AAATTTAT | 0.141 |
| AGCGGCAT | 0.167 |
| CCCGTCAC | -0.153 |
| ATCGATGC | 0.168 |
| AGAAGCCA | 0.0129 |
| ATGAGGAG | -0.13 |
| GATGCGCA | 0.0645 |
| GGCGGTAC | -0.0508 |
| ATGTGTGG | 0.0509 |
| TCAGCGCA | 0.00579 |
| ACATATTA | 0.266 |
| CTGGTAAG | -0.00442 |
| AAGAGGAA | 0.0137 |
| AGGTTTGA | 0.014 |
| ACTCGTTA | -0.0616 |
| ACAAATAT | 0.23 |
| GGAGCGTA | 0.00302 |

| Sequence | PBM E-score |
| --- | --- |
| AGACAACA | 0.0664 |
| TCTCTCAA | 0.18 |
| AAACTAAC | 0.21 |
| AAGACACC | -0.0717 |
| ATTAGTCC | 0.168 |
| GATTCCCA | -0.0826 |
| AAGCGTTC | -0.0382 |
| AGCATCCT | 0.0649 |
| AGACATCT | -0.122 |
| GGTGTAGA | -0.0858 |
| AGCACCGG | -0.145 |
| ATCTCCAC | -0.0553 |
| AATAAAAT | 0.129 |
| GCCTGGCA | -0.258 |
| ATGCAATA | 0.135 |
| GCAACAAC | 0.00333 |
| CGAAATAA | 0.23 |
| TCACTTCA | -0.0777 |
| AAAGCTTA | 0.147 |
| ACAACCAA | 0.0847 |
| GAGCATAC | -0.133 |
| CGAATTCC | 0.0759 |
| AGTCCCAC | -0.0661 |
| GAACCCCC | -0.49 |
| AATAGTCC | -0.0671 |

Nothing new here: an excerpt of the list.

| Sequence | PBM E-score |
| --- | --- |
| GATCTTCC | -0.173 |
| AATCACGG | 0.238 |
| GACGATAA | 0.108 |
| CTTAATGA | 0.0487 |
| CCGACTAG | -0.101 |
| AAATTTAT | 0.141 |
| AGCGGCAT | 0.167 |
| CCCGTCAC | -0.153 |
| ATCGATGC | 0.168 |
| AGAAGCCA | 0.0129 |
| ATGAGGAG | -0.13 |
| GATGCGCA | 0.0645 |
| GGCGGTAC | -0.0508 |
| ATGTGTGG | 0.0509 |
| TCAGCGCA | 0.00579 |
| ACATATTA | 0.266 |
| CTGGTAAG | -0.00442 |
| AAGAGGAA | 0.0137 |
| AGGTTTGA | 0.014 |
| ACTCGTTA | -0.0616 |
| ACAAATAT | 0.23 |
| GGAGCGTA | 0.00302 |
| AGACAACA | 0.0664 |
| TCTCTCAA | 0.18 |
| AAACTAAC | 0.21 |
| AAGACACC | -0.0717 |
| ATTAGTCC | 0.168 |
| GATTCCCA | -0.0826 |
| AAGCGTTC | -0.0382 |
| AGCATCCT | 0.0649 |
| AGACATCT | -0.122 |
| GGTGTAGA | -0.0858 |
| AGCACCGG | -0.145 |
| ATCTCCAC | -0.0553 |
| AATAAAAT | 0.129 |
| GCCTGGCA | -0.258 |
| ATGCAATA | 0.135 |
| GCAACAAC | 0.00333 |
| CGAAATAA | 0.23 |
| TCACTTCA | -0.0777 |
| AAAGCTTA | 0.147 |
| ACAACCAA | 0.0847 |
| GAGCATAC | -0.133 |
| CGAATTCC | 0.0759 |
| AGTCCCAC | -0.0661 |
| GAACCCCC | -0.49 |
| AATAGTCC | -0.0671 |

Continuation:

| Sequence | PBM E-score |
| --- | --- |
| GGGAGGAC | -0.179 |
| ACCGAAGT | 0.114 |
| CGGACACA | -0.106 |
| ATGCCTCC | -0.068 |
| CCCTCAGA | -0.131 |
| CGCTTGCC | -0.163 |
| CACGGACG | -0.0169 |
| TTAGAGAA | -0.212 |
| AGTAAACC | -0.0179 |
| CGACGTCA | -0.0114 |
| CAATTAAA | 0.202 |
| AATTTCCT | 0.0794 |
| AGACTATA | 0.157 |
| CAGGATCC | 0.00579 |
| ACGACTGG | -0.181 |
| CCTGCCTC | -0.176 |
| CCCGTACG | -0.203 |
| CCTTCAAC | 0.0125 |
| CGGGGCAA | 0.0365 |
| CGTTTCAC | -0.106 |
| ACACGAAC | -0.00907 |
| CACTAACA | 0.127 |
| ATCGTCAT | 0.244 |
| AGTGAGCC | 0.0445 |
| GATCAAAC | 0.0848 |

| Sequence | PBM E-score |
| --- | --- |
| AGTTGACG | 0.126 |
| GAAGCCTA | -0.0804 |
| TCAGCCCA | 0.0892 |
| CATCACTC | -0.0607 |
| GCTTGGCC | -0.103 |
| CTAGAATC | -0.0115 |
| CTTTAAAG | -0.249 |
| CATGTCAG | 0.0592 |
| CTGTCACC | -0.183 |
| TGCCTAAA | -0.0398 |
| CAACGCTG | -0.104 |
| AGCGTTTA | -0.0523 |
| AGAATCTG | -0.00702 |
| GCTAAAAA | -0.154 |
| CACGCATA | -0.0145 |
| ACGTCTTA | -0.0299 |
| CAGAGTAC | -0.137 |
| CGCTGCCG | -0.211 |
| TAACTAAA | 0.0806 |
| GACGGGCC | -0.315 |
| CCGCGGCC | -0.0807 |
| ATTAGGTA | 0.271 |
